Laboratory results: the supplement of paper PMC11732987, “Enantioselective OTUD7B fragment discovery through chemoproteomics screening and high-throughput optimisation” (Communications Chemistry, 2025)
The list shows a part of the results. The data scatter; read single values as rough.

By UniProt entry, the sequences of proteins in these tests, tags left out. Where a name states a change or a piece, a line headed by the entry shows the natural chain unless it says otherwise. Residues count along the entry.
UniProt Q6PIJ6: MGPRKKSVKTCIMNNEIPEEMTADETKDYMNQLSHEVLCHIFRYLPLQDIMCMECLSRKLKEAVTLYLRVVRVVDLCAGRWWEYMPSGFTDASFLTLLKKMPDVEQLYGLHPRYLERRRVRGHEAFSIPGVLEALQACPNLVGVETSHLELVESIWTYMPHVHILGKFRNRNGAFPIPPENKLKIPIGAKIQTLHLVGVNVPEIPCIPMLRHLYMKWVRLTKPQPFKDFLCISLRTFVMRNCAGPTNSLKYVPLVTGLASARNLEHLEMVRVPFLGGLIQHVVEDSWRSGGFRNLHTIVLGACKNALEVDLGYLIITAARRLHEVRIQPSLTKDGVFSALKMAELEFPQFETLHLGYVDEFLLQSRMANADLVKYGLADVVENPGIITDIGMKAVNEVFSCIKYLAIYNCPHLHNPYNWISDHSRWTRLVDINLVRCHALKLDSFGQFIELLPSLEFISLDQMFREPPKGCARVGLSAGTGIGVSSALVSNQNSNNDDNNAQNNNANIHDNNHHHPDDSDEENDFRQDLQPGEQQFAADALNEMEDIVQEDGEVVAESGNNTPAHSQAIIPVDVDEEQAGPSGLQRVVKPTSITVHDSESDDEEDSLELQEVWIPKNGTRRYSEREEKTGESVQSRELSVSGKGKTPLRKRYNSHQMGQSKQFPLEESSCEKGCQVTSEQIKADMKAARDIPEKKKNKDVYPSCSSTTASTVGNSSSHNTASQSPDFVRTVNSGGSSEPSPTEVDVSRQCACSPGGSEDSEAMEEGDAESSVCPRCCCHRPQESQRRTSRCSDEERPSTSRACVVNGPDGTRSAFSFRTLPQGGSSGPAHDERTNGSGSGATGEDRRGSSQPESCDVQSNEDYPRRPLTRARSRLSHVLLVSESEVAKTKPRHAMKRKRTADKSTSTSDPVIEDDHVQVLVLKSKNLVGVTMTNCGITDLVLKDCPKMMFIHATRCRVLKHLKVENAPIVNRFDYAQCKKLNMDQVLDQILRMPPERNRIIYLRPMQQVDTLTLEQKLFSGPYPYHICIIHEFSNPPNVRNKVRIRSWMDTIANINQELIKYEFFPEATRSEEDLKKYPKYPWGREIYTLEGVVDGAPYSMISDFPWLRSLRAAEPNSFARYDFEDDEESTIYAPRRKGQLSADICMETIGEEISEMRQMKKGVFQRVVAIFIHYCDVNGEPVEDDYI
UniProt Q96AE4: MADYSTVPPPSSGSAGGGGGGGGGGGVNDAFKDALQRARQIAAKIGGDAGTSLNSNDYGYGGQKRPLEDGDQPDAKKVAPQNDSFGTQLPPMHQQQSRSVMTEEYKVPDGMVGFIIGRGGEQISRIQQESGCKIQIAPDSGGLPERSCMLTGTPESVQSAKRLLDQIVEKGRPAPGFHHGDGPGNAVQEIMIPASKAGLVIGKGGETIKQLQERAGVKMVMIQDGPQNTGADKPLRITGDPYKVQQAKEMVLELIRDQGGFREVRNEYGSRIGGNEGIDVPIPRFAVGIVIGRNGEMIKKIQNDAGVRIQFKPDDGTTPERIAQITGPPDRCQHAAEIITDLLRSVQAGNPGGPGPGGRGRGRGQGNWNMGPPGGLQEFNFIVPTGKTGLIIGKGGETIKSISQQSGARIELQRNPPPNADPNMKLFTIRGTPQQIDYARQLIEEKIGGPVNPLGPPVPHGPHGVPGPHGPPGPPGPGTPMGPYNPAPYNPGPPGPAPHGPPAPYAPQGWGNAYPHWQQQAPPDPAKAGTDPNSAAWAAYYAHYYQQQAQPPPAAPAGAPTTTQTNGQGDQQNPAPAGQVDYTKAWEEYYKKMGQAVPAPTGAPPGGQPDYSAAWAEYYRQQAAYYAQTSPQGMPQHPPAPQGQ
UniProt O94952: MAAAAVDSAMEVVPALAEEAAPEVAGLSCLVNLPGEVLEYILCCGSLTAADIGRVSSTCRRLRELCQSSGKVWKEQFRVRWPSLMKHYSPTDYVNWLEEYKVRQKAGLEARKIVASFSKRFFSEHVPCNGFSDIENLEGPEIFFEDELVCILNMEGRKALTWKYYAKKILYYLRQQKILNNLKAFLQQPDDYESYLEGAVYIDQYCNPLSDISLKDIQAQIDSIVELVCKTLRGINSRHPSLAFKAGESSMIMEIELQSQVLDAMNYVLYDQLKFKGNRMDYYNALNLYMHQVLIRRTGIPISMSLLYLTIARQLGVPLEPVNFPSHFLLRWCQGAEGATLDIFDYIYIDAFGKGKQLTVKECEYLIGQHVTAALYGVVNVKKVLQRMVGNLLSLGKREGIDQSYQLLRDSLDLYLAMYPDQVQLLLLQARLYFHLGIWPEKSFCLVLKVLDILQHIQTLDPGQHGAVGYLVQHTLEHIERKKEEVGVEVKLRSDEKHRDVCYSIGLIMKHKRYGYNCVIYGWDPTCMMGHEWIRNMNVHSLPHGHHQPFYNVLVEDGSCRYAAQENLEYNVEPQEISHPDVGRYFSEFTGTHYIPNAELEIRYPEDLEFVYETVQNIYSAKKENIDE
UniProt Q06546: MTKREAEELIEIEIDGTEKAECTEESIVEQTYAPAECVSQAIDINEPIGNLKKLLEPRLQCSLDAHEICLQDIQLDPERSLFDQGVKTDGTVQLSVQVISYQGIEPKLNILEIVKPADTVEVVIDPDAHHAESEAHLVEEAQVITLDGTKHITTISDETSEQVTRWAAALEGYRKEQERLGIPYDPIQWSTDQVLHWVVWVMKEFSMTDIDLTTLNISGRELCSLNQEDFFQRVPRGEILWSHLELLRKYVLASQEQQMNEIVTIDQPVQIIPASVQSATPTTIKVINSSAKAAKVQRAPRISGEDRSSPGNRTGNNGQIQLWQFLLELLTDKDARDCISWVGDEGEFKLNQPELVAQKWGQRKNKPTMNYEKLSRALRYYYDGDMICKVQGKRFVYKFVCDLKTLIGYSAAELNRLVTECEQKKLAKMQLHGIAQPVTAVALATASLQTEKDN
UniProt Q9Y3I1: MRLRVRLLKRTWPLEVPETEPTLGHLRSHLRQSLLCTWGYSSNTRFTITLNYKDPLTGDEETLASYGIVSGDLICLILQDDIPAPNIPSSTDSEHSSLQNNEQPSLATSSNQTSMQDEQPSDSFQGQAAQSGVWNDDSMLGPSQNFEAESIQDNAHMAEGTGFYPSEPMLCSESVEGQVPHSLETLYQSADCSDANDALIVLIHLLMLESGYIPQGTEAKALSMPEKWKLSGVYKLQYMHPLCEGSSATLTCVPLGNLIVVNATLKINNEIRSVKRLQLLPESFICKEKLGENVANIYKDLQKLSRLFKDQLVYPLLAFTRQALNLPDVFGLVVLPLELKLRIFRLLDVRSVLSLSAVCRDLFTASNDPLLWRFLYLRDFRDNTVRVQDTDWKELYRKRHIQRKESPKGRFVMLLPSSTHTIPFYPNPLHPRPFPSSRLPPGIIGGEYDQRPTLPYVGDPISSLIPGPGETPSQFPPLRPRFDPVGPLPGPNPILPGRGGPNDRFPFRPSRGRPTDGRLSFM
UniProt Q96AY3: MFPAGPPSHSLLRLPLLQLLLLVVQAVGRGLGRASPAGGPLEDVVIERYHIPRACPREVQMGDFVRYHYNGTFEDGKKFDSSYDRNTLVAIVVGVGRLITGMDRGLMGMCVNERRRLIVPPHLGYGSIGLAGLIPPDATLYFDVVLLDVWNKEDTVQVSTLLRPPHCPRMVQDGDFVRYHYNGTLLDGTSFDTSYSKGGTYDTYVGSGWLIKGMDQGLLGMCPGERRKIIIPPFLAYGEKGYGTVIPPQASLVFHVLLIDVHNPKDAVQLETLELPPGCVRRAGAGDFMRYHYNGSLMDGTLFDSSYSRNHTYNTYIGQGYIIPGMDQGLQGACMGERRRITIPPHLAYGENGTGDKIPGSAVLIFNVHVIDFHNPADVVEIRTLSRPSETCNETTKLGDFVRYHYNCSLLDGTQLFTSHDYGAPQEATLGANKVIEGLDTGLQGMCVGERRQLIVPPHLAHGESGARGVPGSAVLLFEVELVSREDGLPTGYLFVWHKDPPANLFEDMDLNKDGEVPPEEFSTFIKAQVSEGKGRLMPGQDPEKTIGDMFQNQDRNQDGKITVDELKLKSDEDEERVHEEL
UniProt Q8N0W3, 580-605: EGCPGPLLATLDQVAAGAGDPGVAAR
UniProt Q6P3S6: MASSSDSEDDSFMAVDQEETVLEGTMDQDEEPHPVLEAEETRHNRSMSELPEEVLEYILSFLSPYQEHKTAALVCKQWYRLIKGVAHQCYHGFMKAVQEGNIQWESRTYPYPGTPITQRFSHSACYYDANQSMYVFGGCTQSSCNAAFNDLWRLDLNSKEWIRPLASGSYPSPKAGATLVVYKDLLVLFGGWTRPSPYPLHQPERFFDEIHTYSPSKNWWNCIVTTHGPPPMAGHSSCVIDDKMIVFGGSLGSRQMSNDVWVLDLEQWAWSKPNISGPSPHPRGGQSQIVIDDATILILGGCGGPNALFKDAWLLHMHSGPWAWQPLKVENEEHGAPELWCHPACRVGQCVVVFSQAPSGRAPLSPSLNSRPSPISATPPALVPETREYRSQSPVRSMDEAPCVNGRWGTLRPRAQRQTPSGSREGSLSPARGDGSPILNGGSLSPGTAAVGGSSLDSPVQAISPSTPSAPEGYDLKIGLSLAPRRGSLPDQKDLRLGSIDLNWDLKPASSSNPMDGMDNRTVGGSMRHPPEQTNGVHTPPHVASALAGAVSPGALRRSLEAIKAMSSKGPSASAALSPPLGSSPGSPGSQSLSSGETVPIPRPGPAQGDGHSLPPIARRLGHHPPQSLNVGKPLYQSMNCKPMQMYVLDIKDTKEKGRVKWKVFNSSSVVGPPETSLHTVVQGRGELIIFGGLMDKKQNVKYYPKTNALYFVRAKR
UniProt O14772: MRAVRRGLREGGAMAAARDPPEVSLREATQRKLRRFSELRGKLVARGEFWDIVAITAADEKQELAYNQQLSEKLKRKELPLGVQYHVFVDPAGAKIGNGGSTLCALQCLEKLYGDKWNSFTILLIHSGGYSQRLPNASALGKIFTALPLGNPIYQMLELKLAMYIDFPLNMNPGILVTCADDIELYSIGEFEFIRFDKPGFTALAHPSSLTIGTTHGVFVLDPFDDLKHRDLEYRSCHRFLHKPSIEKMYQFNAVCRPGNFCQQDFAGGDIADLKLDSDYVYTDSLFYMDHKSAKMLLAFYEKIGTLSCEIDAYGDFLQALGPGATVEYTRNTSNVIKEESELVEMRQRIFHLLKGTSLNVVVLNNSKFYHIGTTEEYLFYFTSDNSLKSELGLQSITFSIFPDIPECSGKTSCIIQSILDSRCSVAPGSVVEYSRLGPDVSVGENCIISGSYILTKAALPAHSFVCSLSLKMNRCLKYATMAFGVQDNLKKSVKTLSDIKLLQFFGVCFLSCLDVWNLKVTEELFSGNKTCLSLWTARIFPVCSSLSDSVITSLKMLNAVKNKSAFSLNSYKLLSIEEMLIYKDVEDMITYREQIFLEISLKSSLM
UniProt Q53R41: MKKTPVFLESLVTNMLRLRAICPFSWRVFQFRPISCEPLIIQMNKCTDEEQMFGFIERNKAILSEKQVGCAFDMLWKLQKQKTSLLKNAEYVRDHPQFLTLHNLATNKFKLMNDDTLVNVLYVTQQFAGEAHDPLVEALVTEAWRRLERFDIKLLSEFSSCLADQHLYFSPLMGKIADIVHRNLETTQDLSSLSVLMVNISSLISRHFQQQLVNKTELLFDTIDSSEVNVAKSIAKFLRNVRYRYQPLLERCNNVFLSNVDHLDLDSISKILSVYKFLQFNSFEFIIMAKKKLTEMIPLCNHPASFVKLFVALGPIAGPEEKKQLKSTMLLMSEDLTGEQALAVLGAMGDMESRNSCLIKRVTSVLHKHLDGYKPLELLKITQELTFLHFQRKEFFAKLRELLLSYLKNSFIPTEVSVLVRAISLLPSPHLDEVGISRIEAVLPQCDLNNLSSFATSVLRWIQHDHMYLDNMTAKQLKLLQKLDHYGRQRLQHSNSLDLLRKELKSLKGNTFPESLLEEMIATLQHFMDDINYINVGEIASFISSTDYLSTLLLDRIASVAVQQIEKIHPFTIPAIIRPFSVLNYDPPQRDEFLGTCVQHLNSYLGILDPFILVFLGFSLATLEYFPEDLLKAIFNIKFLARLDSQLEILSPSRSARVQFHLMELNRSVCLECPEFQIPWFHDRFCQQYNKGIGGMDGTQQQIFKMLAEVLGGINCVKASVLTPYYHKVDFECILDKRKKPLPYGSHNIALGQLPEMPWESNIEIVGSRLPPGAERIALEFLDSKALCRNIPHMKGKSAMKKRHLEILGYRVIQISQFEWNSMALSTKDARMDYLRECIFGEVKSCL

What follows are targets tested with ClCC(=O)N[C@H]1CCCc2ccccc12 (assay: log2 mean competition ratio of IA-DTB cysteine labelling (DMSO/compound) (log2 ratio); higher = stronger cysteine engagement by compound). Conditions: 200 µM; treatment time: 4 h; cell line lysate: HEK293T.
Procedure: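 IA-DTB competitive cysteine chemoproteomics in HEK293T RIPA lysate. Lysates were treated with compound 29 or 30 at 50 or 200 µM for 4 h, then IA-DTB (500 µM, 1 h), trypsin-digested, NeutrAvidin-enriched and analysed by diaPASEF. Competition ratio = intensity DMSO / intensity compound (n=4 treated, n=64 DMSO); binding: mean log2 CR ≥ 1 and p ≤ 0.05 plus QC filters. Target is the cysteine site.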

| Target | log2 mean competition ratio |
| --- | --- |
| FBXO38 C401 (UniProt Q6PIJ6) | -0.309 |
| FNTA C341 | 0.332 |
| FHOD1 C31 (UniProt Q9Y613) | -0.14 |
| FAT1 C674 (UniProt Q14517) | -0.112 |
| FUBP1 C148 (UniProt Q96AE4) | -0.153 |
| FBXO21 C66 (UniProt O94952) | -0.0147 |
| FXR2 C282 (UniProt P51116) | 0.202 |
| GABPA C421 (UniProt Q06546) | 0.157 |
| FOXM1 C526 | 0.507 |
| FZD6 C161 (UniProt O60353) | 0.311 |
| FCHSD2 C354 (UniProt O94868) | 0.0502 |
| FBXO7 C286 (UniProt Q9Y3I1) | 0.106 |
| FKBP10 C392 (UniProt Q96AY3) | -0.136 |
| FLNC C2679 (UniProt Q14315) | -0.0604 |
| FNIP1 C281 (UniProt Q8TF40) | 0.138 |
| FECH C395 (UniProt P22830) | 0.0787 |
| FBXL3 C331 | 0.167 |
| FCSK C582 (UniProt Q8N0W3) | 0.0726 |
| FBXO38 C803 (UniProt Q6PIJ6) | 0.178 |

Some of the entries above, set out differently.
Target	log2 mean competition ratio
FBXO38 C401 (UniProt Q6PIJ6)	-0.309
FNTA C341	0.332

Additional results follow:

| Target | log2 mean competition ratio |
| --- | --- |
| FASTKD3 C266 (UniProt Q14CZ7) | -0.0827 |
| FBXO42 C403 (UniProt Q6P3S6) | 0.224 |
| FER C627 (UniProt P16591) | 0.052 |
| FBN2 C89 (UniProt P35556) | 0.231 |
| FBXL18 C423 (UniProt Q96ME1) | 0.133 |
| FCHSD2 C105 (UniProt O94868) | 0.279 |
| GART C291 | 0.315 |
| GAPVD1 C789 (UniProt Q14C86) | 0.0171 |
| FUBP1 C132 (UniProt Q96AE4) | 0.14 |
| FRYL C2803 (UniProt O94915) | 0.11 |
| FCSK C1000 (UniProt Q8N0W3) | 0.548 |
| FER C785 (UniProt P16591) | 0.314 |
| FPGT C414 (UniProt O14772) | -0.176 |
| FRMD8 C191 (UniProt Q9BZ67) | 0.104 |
| FASTKD1 C686 (UniProt Q53R41) | 0.0974 |
| FOXF2 C157 | 0.578 |
| GAB1 C213 (UniProt Q13480) | -0.278 |
| GAB1 C360 (UniProt Q13480) | 0.159 |
